# Screening data, single-dose tests

Source: ChEMBL document CHEMBL3988442, “University of Dundee, Small-Polar-MMV Screening Library” (2021).

Values are the deposited “Percent Effect”, in %. The controls that fix the scale are not given in the record; negative values are as filed. Compounds were drawn at random from those tested, without regard to their results. Two or more numbers in one place are separate tests of the same structure; such repeats can differ widely.

A: 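Phenotypic screen: M. tuberculosis growth, glucose 7H9 medium, 3 days; the read-out is not stated. Compounds at 50 µM. Higher reads as more growth inhibition (inferred: compounds with an IC50 in retests scored well above the rest). About 69,000 compounds were tested under these conditions; 1.1% (about 760) showed 50% or more at least once.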
B: 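Phenotypic screen: M. tuberculosis growth, cholesterol and DPPC medium, 4 days; the read-out is not stated. Compounds at 50 µM. The record gives no direction; compounds that gave an IC50 in retests scored well above the rest, so higher reads as more growth inhibition. Of about 69,000 compounds tested this way, about 370 (0.54%) reached 50% or more in at least one test.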

structure	A	B
O=C(c1cccc(S(=O)(=O)NCCc2ccccn2)c1)N1CCOCC1	2.498	-15.2 & 4.487
O=C1CC(c2ccccc2Br)c2sc(N3CCOCC3)nc2N1 (stereo not given)	-2.414	-27.4
C=C(C)CN(CC)C(=O)Nc1ccccc1CN(C)C(C)=O	-5.732 & 16.73	4.591
Cc1cc(C)n(CCCN(C)c2cc(N(C)C)ncn2)n1	14.67	-7.712
O=C(O)[C@@H]1CCN(C(=O)Cc2ccccn2)[C@@H]1c1ccc(F)cc1	-26.37	4.181
O=S(=O)(NCC1CCN(c2ccccn2)CC1)c1ccccc1F	5.133	34.39
O=C1COC2(CCN(C(=O)[C@H]3CCCO3)CC2)CN1Cc1ccccn1	-47.3	-24.21
CNC(=O)c1cccc(NC(=O)NC(C)c2cc(C)oc2C)c1C (stereo not given)	14.17	17.83
O=C(O)C(F)(F)F.O=C(O)C(F)(F)F.[H][C@@]12CCCO[C@]1([H])[C@H](NC(=O)c1cccnc1)CN(c1ncccn1)C2	-27.56 & -13.58	-31.69
Cc1ccc(C(=O)NC2CCN(C(=O)Nc3ccncc3)CC2)o1	-0.5327	-3.546
[H][C@@]12CCC(=O)N(c3ccccc3)[C@]1([H])CCN2C(=O)c1cccs1	-30.21	-19.22 & -15.06
Cc1ccccc1SCC(=O)N[C@H]1CC[C@H](n2cnnc2)CC1	-9.615 & -11.02	-6.655
CCC(=O)NC(CC(C)C)c1cccs1 (stereo not given)	-4.812	-3.19
CCc1cccc(OCC(=O)N2CCCC(n3cncn3)C2)c1 (stereo not given)	-28.78	-9.824
Cc1cnc(CN2CCC(N(C)Cc3nnc(C4CC4)n3C)C2)cn1 (stereo not given)	13.05	3.138
COc1ccc(C(CNC(=O)Nc2cc(C)nn2C)N(C)C)cc1 (stereo not given)	-6.002	7.611
CC(C)Cc1nc(NC(=O)c2cccnc2)n[nH]1	15.77	2.29
CSCC(=O)N(C)Cc1noc(-c2ccccc2)n1	-9.55	4.128
Cc1cccc(C2CCCCCN2C(=O)c2cn(CC(N)=O)nn2)c1 (stereo not given)	-0.06397 & 5.376	17.4
CN(C)C1CCN(C(=O)c2cc(-c3ccn(C)n3)n3ccccc23)CC1.O=C(O)C(F)(F)F	-10.04	-7.298
CCc1nc(C2CCCN(C(=O)c3cccnc3O)C2)no1 (stereo not given)	-20.06 & 3.784	14.52
CCOc1cncc(N2CCOCC2)n1	23.28	13.73
CCn1ccnc1CN1CCNCC1C.Cl.Cl (stereo not given)	-1.553 & 7.253	-9.1
CC(C)COCC1CN(Cc2ccsc2)Cc2ncn(C)c21 (stereo not given)	8.757	6.367
Clc1ccc(N2CCC(C3CCN(Cc4cccnc4)CC3)C2)nc1 (stereo not given)	31.84	13.34
CCC1(C(=O)O)CCCN(C(=O)c2ccc(O)c(Cl)c2)C1 (stereo not given)	20.18	14.18
CC(C)n1cnnc1CNC(=O)c1cnn(-c2ccccc2)c1	3.072	2.321
CCNC(=O)NC(=O)CSC(C)c1ccccc1F (stereo not given)	32.58	36.25
O=C(O)C(F)(F)F.[H][C@@]12CCN(S(=O)(=O)c3cccc(C)c3)C[C@]1([H])[C@@H](CN(C)C)OC2	15.67	10.08
CC(=O)NCC(=O)N1CCCC1c1ccc(CN2CCOCC2)cn1 (stereo not given)	1.097	0.3874 & 4.073
CCc1nc(C(=O)N2CCOCC2CC(=O)c2ccccc2)c[nH]1 (stereo not given)	-2.876	-2.623 & 6.646
O=S(=O)(NC1=NCN(CCc2cccs2)CN1)c1ccc(F)cc1	-8.739	-8.877
Cc1cc(O)nc(C2CCCNC2)n1.Cl (stereo not given)	-1.244	0.501
Cc1nccn1[C@@H]1CC[C@@H](N(C)S(=O)(=O)c2ccccc2F)[C@H]1O	-15.71	0.4472 & -7.829
Cc1cc(C)nc(Nc2cccc(C3CCCN(CC4CC4)C3)n2)n1 (stereo not given)	20.18	23.61
CC(C)c1nc(CN2CCN(C(=O)Cc3ccccc3Cl)CC2)no1	14.01	14.05
COc1cccc(CN(C)C(C)c2nccs2)c1OCCn1ccnc1 (stereo not given)	2.328	9.069
CNS(=O)(=O)c1ccc(C(=O)NC2CCOc3ccccc32)o1 (stereo not given)	-1.029 & 15.32	5.618
Cc1nc(C2CCCN2C(=O)Cc2cccc(F)c2)nc(O)c1C (stereo not given)	-16.06	-40.92
[H][C@@]12CCN(C(=O)Cc3ccc(C)cc3)C[C@]1(COC)CCO2	-36.15	19.69
Cc1ccc(CN2Cc3ccccc3O[C@]3(CC[C@H](CO)CC3)C2)o1.Cl	-29.09	-48.83
CN(Cc1ccccc1)C(=O)CCNS(=O)(=O)c1cccnc1	-15.83	-14.61 & -4.149
[H][C@@]12CS(=O)(=O)C[C@]1([H])N(C(=O)c1ccc3c(c1)NC(=O)CN3)CCN2CC	-3.592	1.323
O=C(O)C(F)(F)F.[H][C@]12CCNCC[C@@]1([H])S(=O)(=O)CCN2C(=O)c1ccccc1	-12.53	-15.19
c1ccc(-n2cc(CN3CCCC3Cn3cncn3)nn2)cc1 (stereo not given)	-3.875	-20.77
[H][C@]12CCN(C(=O)C(C)(C)C)CC[C@@]1([H])S(=O)(=O)CCN2S(C)(=O)=O	-6.445	-1.861 & 1.489
COc1ccc(CN2CCCC2Cn2nc(C)nc2C)cc1F (stereo not given)	-5.69	-16.34